At least one structure is not confirmed: it was looked up by name or label, or the drawing left a doubt.
System: intracellular S. aureus
Test: Bactericidal activity of RAW 264.7 macrophages against intracellular S. aureus (antibiotic protection assay, viable colony number)
Assay type: cell-based, Staphylococcus aureus
Conditions: cells with IONPs 3 mg/mL + VC 500 μM plus chelator BIP 500 μM or scavenger THI 200 mM, FIG. 3C
Method: A. The quantification of ROS generation in the RAW 264.7 cells treated with varying concentration of IONPs (0-3 mg/mL). B. The colony number of viable bacteria (S. aureus) in the lysed RAW 264.7 macrophages treated with varying concentration of IONPs (0-3 mg/mL) following the exposure of live S. aureus.
(A-B) The quantification of ROS generation (A) and viable colony number of S. aureus (B) in the RAW 264.7 cells treated with VC (500 μM) alone, IONP (3 mg/mL) alone, or IONP (3 mg/mL)+VC (500 μM). (C-D) The quantification of ROS generation (C) and viable colony number of S. aureus (D) in the RAW 264.7 cells treated with IONP (3 mg/mL) alone, or IONP (3 mg/mL)+H2O2 (100 μM). E. Representative images of surviving S. aureus colony on agar plates from lysed RAW264.7 macrophages treated with H2O2 (100 μM), IONP (3 mg/mL), or IONP+H2O2. N=3-5 per group, *p<0.05
A. The intracellular level of ferrous iron (Fe2+) in RAW 264.7 cells treated with IONPs (3 mg/mL) alone, IONPs with VC (500 μM), or IONPs with VC and BIP (iron chelator, 500 μM). […] The bactericidal activity of RAW 264.7 cells treated with IONPs (3 mg/mL) with VC (500 μM), IONPs with VC and BIP (500 μM), or IONPs with VC and TIH (200 mM), assessed by antibiotic protection assay. *p<0.05, N=3-5 per group. […]

NC(N)=S [THI, thiourea]
IONPs/VC-induced bactericidal activity of RAW 264.7 cells: reverse IONPs/VC-induced bactericidal activity

— patent publication US20220409576A1, “NANO-PARTICULATE COMPOSITIONS FOR STIMULATING HOST INNATE IMMUNE RESPONSES FOR THERAPEUTIC APPLICATIONS” (priority 2019, published 2022)
